From paper doi:10.1101/2021.10.17.464745

Biological target: T1, GST-tagged ACT domain of PHGDH (human) (UniProt O43175)
T1 sequence: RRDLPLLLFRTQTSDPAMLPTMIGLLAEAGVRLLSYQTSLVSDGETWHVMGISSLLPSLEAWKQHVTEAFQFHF
Test: pull-down

Substance: His-tagged cMyc protein (from UniProt P01106)
- binding: binds

Results are given in words; binding and its absence hold for the method and conditions named. Binding can be weak; no strength is given. Sequences can lack the tags named with a protein.
